Test: general procedure: solution-phase peptide synthesis; EDC hydrochloride/HOBT/DMAP
Conditions: late stage modification step

**Q.** With “(1S,9S)-1-(glycyl-glycyl-L-phenyl-alanyl-glycylamino)-9-ethyl-5-fluoro-2,3-dihydro-9-hydroxy-4-methyl-1H,12H-benzo[de]pyrano[3′,4′:6,7] indolizino[1,2-b]quinoline-10,13(9H,15H)-dione” as the substance, how does the step yield read?
**A.** 86%

— US20060052288A1 (priority 2001, published 2006)
